Source: the supplement of paper PMC10331698
± gives the standard deviation of the averaged measurements. Most entries show no effect beyond the scatter of the controls.

Experiments:
Test in all cases: level (log10 ratio to DMSO vehicle control); higher = higher biomarker level / cell amount than vehicle control
[1] = compound: C=C(C)C(=O)OCC(F)(F)C(F)(F)C(F)(F)F [2,2,3,3,4,4,4-Heptafluorobutyl methacrylate]; conditions: 2200 nM; in DMSO
Method: (§1)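 BioMAP Diversity Plus panel of 12 human primary cell co-culture systems (3C, 4H, LPS, SAg, BT, BF4T, BE3C, CASM3C, HDF3CGF, KF3CT, MyoF, Mphg). Compounds were added 1 h before stimulation and left for 24 h (MyoF 48 h; BT 72 h for soluble read-outs or 6 d for IgG). Biomarkers were read by ELISA, cytotoxicity by SRB, PBMC viability and proliferation by Alamar Blue. Each well value was divided by the mean of 8 DMSO control wells on the same plate and log10 transformed; duplicate blinded samples were tested at 4 concentrations.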

[2] = compound: C=CC(=O)OCC(F)(F)C(F)(F)C(F)(F)C(F)(F)COC(=O)C=C [1H,1H,6H,6H-Perfluorohexane-1,6-diol diacrylate]; conditions: 2200 nM; in DMSO
Method: as §1

[3] = compound: FC(F)(F)C(F)(F)C(F)(F)C(F)(F)C(F)(F)C(F)(F)C(F)(F)CCI [1-Iodo-1H,1H,2H,2H-perfluorononane]; conditions: in DMSO
Method: as §1

[4] = compound: FC(F)(F)C(F)(F)C(F)(F)C(F)(F)C(F)(F)C(F)(F)C(F)(F)I [1-Iodopentadecafluoroheptane]; conditions: in DMSO
Method: as §1

[5] = compound: FC(F)C(F)(F)COCC1CO1 [((2,2,3,3-Tetrafluoropropoxy)methyl)oxirane]; conditions: 2200 nM; in DMSO
Method: as §1

Perfluorooctanamide = compound: NC(=O)C(F)(F)C(F)(F)C(F)(F)C(F)(F)C(F)(F)C(F)(F)C(F)(F)F [Perfluorooctanamide]; conditions: 2200 nM; in DMSO
Method: as §1

Perfluoroundecanoic acid = compound: O=C(O)C(F)(F)C(F)(F)C(F)(F)C(F)(F)C(F)(F)C(F)(F)C(F)(F)C(F)(F)C(F)(F)C(F)(F)F [Perfluoroundecanoic acid]; conditions: in DMSO
Method: as §1

[6] = compound: O=C(O)C(F)(F)C(F)(F)C(F)(F)C(F)(F)C(F)(F)C(F)(F)C(F)(F)C(F)F [9-H-Perfluorononanoic acid]; conditions: 2200 nM; in DMSO
Method: as §1

Perfluorobutanoic acid = compound: O=C(O)C(F)(F)C(F)(F)C(F)(F)F [Perfluorobutanoic acid]; conditions: 2200 nM; in DMSO
Method: as §1

Perfluoropropanoic acid = compound: O=C(O)C(F)(F)C(F)(F)F [Perfluoropropanoic acid]; conditions: 2200 nM; in DMSO
Method: as §1

[7] = compound: O=C(O)C(F)(F)C(F)(F)OC(F)(F)F [Perfluoro-3-methoxypropanoic acid]; conditions: 2200 nM; in DMSO
Method: as §1

[8] = compound: O=C(O)C(F)(F)OC(F)(F)C(F)(F)OC(F)(F)C(=O)O [Perfluoro-3,6-dioxaoctane-1,8-dioic acid]; conditions: 2200 nM; in DMSO
Method: as §1

[9] = compound: O=C(O)C(F)(F)OC(F)(F)C(F)(F)OC(F)(F)C(F)(F)C(F)(F)C(F)(F)F [Perfluoro-3,6-dioxadecanoic acid]; conditions: 2200 nM; in DMSO
Method: as §1

[10] = compound: O=C(O)C=CC(F)(C(F)(F)F)C(F)(F)F [3-(Perfluoroisopropyl)-2-propenoic acid]; conditions: in DMSO
Method: as §1

[11] = compound: O=P(O)(O)CCC(F)(F)C(F)(F)C(F)(F)C(F)(F)C(F)(F)C(F)(F)C(F)(F)C(F)(F)F [((Perfluorooctyl)ethyl)phosphonic acid]; conditions: 2200 nM; in DMSO
Method: as §1

[12] = compound: O=S(=O)(Cl)C(F)(F)C(F)(F)C(F)(F)C(F)(F)C(F)(F)C(F)(F)C(F)(F)C(F)(F)F [Perfluoro-1-octanesulfonyl chloride]; conditions: 2200 nM; in DMSO
Method: as §1

[13] = compound: OCC(F)(F)C(F)(F)C(F)(F)C(F)(F)C(F)(F)C(F)(F)C(F)(F)C(F)(F)C(F)(F)C(F)(F)C(F)(F)F [11:1 Fluorotelomer alcohol]; conditions: in DMSO
Method: as §1

[14] = compound: OCCC(F)(F)C(F)(F)C(F)(F)C(F)(F)C(F)(F)C(F)(F)C(F)(F)C(F)(F)F [8:2 Fluorotelomer alcohol]; conditions: 2200 nM; in DMSO
Method: as §1

| Test System | level (log10) [1] | level (log10) [2] | level (log10) ([3]; 740 nM) | level (log10) ([3]; 2200 nM) | level (log10) ([3]; 6700 nM) | level (log10) ([3]; 20000 nM) | level (log10) ([4]; 740 nM) | level (log10) ([4]; 2200 nM) | level (log10) ([4]; 6700 nM) | level (log10) ([4]; 20000 nM) | level (log10) [5] | level (log10) (Perfluorooctanamide) | level (log10) (Perfluoroundecanoic acid; 740 nM) | level (log10) (Perfluoroundecanoic acid; 2200 nM) | level (log10) [6] | level (log10) (Perfluorobutanoic acid) | level (log10) (Perfluoropropanoic acid) | level (log10) [7] | level (log10) [8] | level (log10) [9] | level (log10) ([10]; 2200 nM) | level (log10) ([10]; 6700 nM) | level (log10) ([10]; 20000 nM) | level (log10) ([10]; 60000 nM) | level (log10) [11] | level (log10) [12] | level (log10) ([13]; 370 nM) | level (log10) ([13]; 1100 nM) | level (log10) ([13]; 3300 nM) | level (log10) ([13]; 10000 nM) | level (log10) [14] |
| --- | --- | --- | --- | --- | --- | --- | --- | --- | --- | --- | --- | --- | --- | --- | --- | --- | --- | --- | --- | --- | --- | --- | --- | --- | --- | --- | --- | --- | --- | --- | --- |
| SAg:CCL2/MCP-1 | -0.0045 ± 0.049 | -0.0015 ± 0.088 | 0.003 ± 0.02 | -0.02 ± 0.017 | -0.0145 ± 0.0078 | -0.0025 ± 0.049 | -0.0095 ± 0.042 | -0.015 ± 0.024 | 0.02 ± 0.05 | 0.0105 ± 0.033 | -0.0135 ± 0.044 | 0 ± 0.014 | 0.0015 ± 0.037 | -0.0075 ± 0.0064 | -0.006 ± 0.03 | 0.007 ± 0.0071 | -0.005 ± 0.011 | -0.007 ± 0.021 | -0.0035 ± 0.026 | -0.024 ± 0.025 | -0.0135 ± 0.026 | -0.003 ± 0.0042 | -0.0005 ± 0.016 | -0.0055 ± 0.0064 | -0.0025 ± 0.021 | 0.0015 ± 0.0092 | 0.019 ± 0.021 | 0.0095 ± 0.0078 | -0.013 ± 0.044 | 0.0225 ± 0.039 | 0.018 ± 0.03 |
| BT:sTNF-alpha | -0.024 ± 0.13 | -0.328 ± 0.02 | 0.153 ± 0.028 | -0.001 ± 0.041 | 0.018 ± 0.054 | 0.063 ± 0.12 | -0.04 ± 0.1 | 0.049 ± 0.11 | -0.051 ± 0.018 | 0.093 ± 0.17 | 0.121 ± 0.047 | 0.0005 ± 0.046 | -0.0235 ± 0.015 | 0.137 ± 0.032 | -0.009 ± 0.064 | 0.0855 ± 0.12 | 0.0605 ± 0.0092 | 0.063 ± 0.21 | -0.0345 ± 0.056 | 0.0525 ± 0.05 | -0.0155 ± 0.16 | -0.0275 ± 0.04 | -0.149 ± 0.1 | -0.028 ± 0.03 | -0.008 ± 0.2 | 0.0365 ± 0.039 | -0.057 ± 0.044 | -0.057 ± 0.031 | -0.127 ± 0.0064 | -0.0825 ± 0.079 | 0.0325 ± 0.15 |
| BT:sIL-17F | -0.014 ± 0.13 | -0.322 ± 0.23 | 0.017 ± 0.03 | 0.058 ± 0.052 | 0.062 ± 0.023 | 0.0585 ± 0.011 | -0.123 ± 0.0078 | 0.0055 ± 0.019 | -0.0435 ± 0.049 | -0.0545 ± 0.16 | -0.018 ± 0.079 | -0.009 ± 0.037 | -0.0335 ± 0.12 | -0.136 ± 0.051 | -0.008 ± 0.0071 | -0.083 ± 0.081 | -0.0555 ± 0.12 | -0.133 ± 0.016 | -0.129 ± 0.071 | 0.0035 ± 0.06 | -0.17 ± 0.13 | -0.088 ± 0.081 | -0.014 ± 0.054 | 0.0025 ± 0.043 | -0.0725 ± 0.042 | -0.032 ± 0.0057 | 0.268 ± 0.0071 | 0.308 ± 0.0078 | 0.319 ± 0.096 | 0.33 ± 0.077 | 0.012 ± 0.0099 |
| CASM3C:SRB | 0.01 ± 0.0042 | -0.0025 ± 0.0035 | 0.004 ± 0.0071 | 0.0065 ± 0.016 | -0.0025 ± 0.0021 | -0.0015 ± 0.0064 | -0.001 ± 0.013 | -0.0015 ± 0.00071 | -0.0025 ± 0.0092 | 0.007 | 0.0075 ± 0.0035 | -0.003 ± 0.014 | 0.005 ± 0.0042 | 0.0005 ± 0.00071 | -0.006 ± 0.0014 | -0.004 ± 0.0085 | 0.008 ± 0.0042 | 0.0205 ± 0.029 | 0.0055 ± 0.022 | -0.001 ± 0.0057 | 0.0045 ± 0.0078 | 0.006 ± 0.0042 | -0.011 ± 0.0042 | -0.003 ± 0.0028 | 0.0005 ± 0.012 | 0.0005 ± 0.023 | 0.0065 ± 0.00071 | 0.0075 ± 0.005 | 0.0095 ± 0.0064 | 0.008 ± 0.0071 | 0.0115 ± 0.005 |
| LPS:CD106/VCAM-1 | -0.026 ± 0.0099 | -0.017 ± 0.014 | 0.003 ± 0.024 | 0.014 ± 0.0057 | 0.002 ± 0.011 | -0.0155 ± 0.039 | 0.016 ± 0.021 | 0.0075 ± 0.029 | 0.0045 ± 0.016 | -0.005 ± 0.0071 | -0.0015 ± 0.033 | 0.0065 ± 0.023 | 0.0105 ± 0.016 | 0.015 ± 0.033 | -0.0005 ± 0.012 | -0.004 ± 0.0028 | -0.0065 ± 0.005 | -0.0015 ± 0.015 | 0.002 ± 0.023 | -0.0095 ± 0.015 | -0.0045 ± 0.0064 | 0.003 ± 0.018 | -0.023 ± 0.013 | -0.018 ± 0.021 | 0.005 ± 0.013 | -0.017 ± 0.011 | -0.033 ± 0.0014 | -0.025 ± 0.0042 | -0.025 ± 0.02 | -0.015 ± 0.0028 | -0.034 ± 0.03 |
| SAg:Proliferation | -0.0035 ± 0.046 | -0.0225 ± 0.022 | 0.0355 ± 0.066 | 0.018 ± 0.03 | -0.0025 ± 0.063 | -0.0055 ± 0.074 | 0.0265 ± 0.026 | -0.026 ± 0.055 | 0.0055 ± 0.043 | -0.0105 ± 0.026 | 0.0235 ± 0.0092 | 0 ± 0.055 | 0.0075 ± 0.088 | -0.0245 ± 0.054 | 0.0255 ± 0.11 | 0.0315 ± 0.028 | -0.048 ± 0.054 | -0.013 ± 0.076 | -0.0135 ± 0.079 | 0.035 ± 0.0071 | 0.0055 ± 0.029 | 0.009 ± 0.016 | -0.008 ± 0.037 | 0.008 ± 0.04 | 0.032 ± 0.0099 | 0.038 ± 0.073 | -0.072 ± 0.09 | -0.248 ± 0.083 | -0.364 ± 0.13 | -0.473 ± 0.35 | 0.003 ± 0.016 |
| lMphg:SRB-Mphg | 0.014 ± 0.02 | -0.0515 ± 0.011 | 0.0285 ± 0.036 | 0.0255 ± 0.012 | 0.001 ± 0.03 | 0.001 ± 0.011 | -0.0025 ± 0.022 | -0.0105 ± 0.026 | 0.005 ± 0.018 | 0.0125 ± 0.011 | -0.0015 ± 0.015 | 0.0025 ± 0.029 | 0.003 ± 0.0014 | -0.0065 ± 0.00071 | 0.045 ± 0.0014 | 0.051 ± 0.0057 | -0.014 ± 0.072 | 0 ± 0.018 | -0.0055 ± 0.0035 | -0.006 ± 0.011 | 0.009 ± 0.014 | 0.0005 ± 0.013 | 0.004 ± 0.0085 | 0.0075 ± 0.015 | 0.0135 ± 0.0092 | 0.0145 ± 0.032 | -0.003 ± 0.028 | -0.039 ± 0.0014 | -0.105 ± 0.0085 | -0.205 ± 0.0085 | 0.0005 ± 0.039 |
